{"source": "PubChem BioAssay AID1487", "about": "(National Center for Advancing Translational Sciences (NCATS), 2009)", "note": "In all, about 200,000 compounds went through this assay and about 25 (0.01%) were called active. This list was built around the results that the source calls inconclusive (neither active nor inactive); the mix of calls is not that of the screen. The call rests on the fitted dose curve; in most records, active means well fitted inhibition curve with a large enough effect in the signal ratio, with a control signal flat (not every such curve was filed as active); inconclusive means small, poorly fitted or top-dose-only effect, or effect the other way, or a change in a side signal; inactive means flat fitted curve, though single readings scatter; the % refers to the signal ratio. A potency beside an inconclusive call is a rough fit, not a confirmed value. On the % scale 0 is the no-effect control and ±100 the full control effect; potency means the concentration at half of the fitted maximal effect."}
{"test": "qHTS Assay for Modulators of Lamin A Splicing", "conditions": "HeLa LMNA splicing GFP/RFP minigene ratio, 48 h; ratio change, negative = inhibition: at 46.1 µM (top of the series) unless noted", "how_it_was_run": "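S3 HeLa cells stably expressing lamin A-EGFP splicing minigene plus DsRed2, 600 cells/well, 48 h compound exposure at 37C. Laser-scanning cytometry; analysed as GFP (500-530 nm)/RFP (575-640 nm) total intensity ratio; 0.5% DMSO vehicle.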"}
{"molecule": "CCc1ccc(C(=O)O)cc1", "ratio change, negative = inhibition": "inconclusive: 15.4% [at 46 µM]"}
{"molecule": "CCOc1ccccc1Nc1sc(C(=O)c2ccccc2)c(N)c1C(=O)Nc1ccc(F)cc1", "ratio change, negative = inhibition": "inactive"}
{"molecule": "CCN(CC)S(=O)(=O)c1ccc(S(=O)(=O)N(Cc2ccccn2)Cc2ccco2)cc1", "ratio change, negative = inhibition": "inactive"}
{"molecule": "CSc1nc2c(cc1C#N)CCCCC2", "ratio change, negative = inhibition": "inactive"}
{"molecule": "COc1ccccc1N1CCN(C(=O)c2cc3c(=O)n(Cc4cccs4)ccc3nc2C)CC1", "ratio change, negative = inhibition": "inactive"}
{"molecule": "CC(C)(C)OC(=O)C(C)(C)O/N=C(\\C(=O)O)c1csc(N)n1", "ratio change, negative = inhibition": "inconclusive: 13.3% [at 46 µM]"}
{"molecule": "O=C(CN(C1CCCCC1)S(=O)(=O)c1ccc(Cl)cc1)NCc1cccnc1", "ratio change, negative = inhibition": "inconclusive: 11.1%"}
{"molecule": "Clc1ccc(-c2nnc(COc3ncnc4sccc34)o2)cc1", "ratio change, negative = inhibition": "inconclusive: -11.7%"}
{"molecule": "Cn1c(SCc2nc3ccccc3[nH]2)nnc1-c1cccs1", "ratio change, negative = inhibition": "inconclusive: 4.32%"}
{"molecule": "O=C(Cc1cccs1)NCc1cn2ccccc2n1", "ratio change, negative = inhibition": "inconclusive: -7.49%"}
{"molecule": "CC(=O)N1N=C(c2ccco2)CC1c1cccs1", "note": "(stereo not drawn)", "ratio change, negative = inhibition": "inactive"}
{"molecule": "Cc1cc(NC(=O)CCN2C(=O)C3C4CCC(C4)C3C2=O)cc(C)c1Br", "note": "(stereo not drawn)", "Potency": "inconclusive: 22.4 µM [falling, single point]"}
{"molecule": "Cc1ccc2cc(CCNC(=O)c3ccco3)c(=O)[nH]c2c1", "ratio change, negative = inhibition": "inactive"}
{"molecule": "COc1ccc(Nc2oc(COc3ccc(Cl)cc3)nc2C#N)cc1", "ratio change, negative = inhibition": "inactive"}
{"molecule": "Cc1cccc(NC(=O)c2cc3c(=O)n(Cc4cccnc4)ccc3nc2C)c1", "ratio change, negative = inhibition": "inactive"}
{"molecule": "CSc1ccccc1NC(=O)NCCCl", "ratio change, negative = inhibition": "inconclusive: 4.24% [at 46 µM]"}
{"molecule": "O=C(COc1ccccc1[N+](=O)[O-])N1CCC(Cc2ccccc2)CC1", "ratio change, negative = inhibition": "inconclusive: 5.32% [at 9.22 µM]"}
{"molecule": "O=C(NCCc1ccc(Cl)cc1)C1CCN(S(=O)(=O)c2ccc3[nH]ccc3c2)CC1", "ratio change, negative = inhibition": "inconclusive: -21% [at 46 µM]"}
{"molecule": "COc1ccc(CCNC(=O)CCSc2nc(-c3ccco3)cc(C(F)(F)F)n2)cc1", "ratio change, negative = inhibition": "inconclusive: 19.6%"}
{"molecule": "CN1C(=S)N(c2cccnc2)C(=O)/C1=C\\c1ccc(N(C)C)cc1", "Potency": "inconclusive: 22.4 µM [inhibitor, partial curve, poor fit]"}
{"molecule": "O=C(c1ccncc1)N1CCN(c2ccc3ccccc3n2)CC1", "ratio change, negative = inhibition": "inconclusive: -9.79% [at 46 µM]"}
{"molecule": "CCOc1ccc(NC(=S)Nc2cccnc2)cc1", "ratio change, negative = inhibition": "inactive: 5.76% [at 9.22 µM]"}
{"molecule": "CCCCn1c(Oc2ccc(C(=O)OC)cc2)nc2c1c(=O)n(C)c(=O)n2C", "ratio change, negative = inhibition": "inconclusive: 9.52%"}
{"molecule": "Fc1ccc(-c2nnc(SCc3ncc(-c4ccccc4)o3)n2CC2CCCO2)cc1", "note": "(stereo not drawn)", "ratio change, negative = inhibition": "inconclusive: 4.63%"}
{"molecule": "Cc1ccc(-n2c(N)c(C(N)=O)sc2=S)cc1", "ratio change, negative = inhibition": "inactive"}
{"molecule": "CCOc1ccc(C(=S)N2CCCC2)cc1", "ratio change, negative = inhibition": "inactive"}
{"molecule": "C#CC(=O)N(c1ccc(OC)cc1OC)C(C(=O)NC1CCCC1)c1cccs1", "note": "(stereo not drawn)", "Potency": "inconclusive: 31.6 µM [cytotoxic, single point]"}
{"molecule": "Cc1ccc(CNC(=O)CCCNS(=O)(=O)c2cccc3nonc23)cc1", "ratio change, negative = inhibition": "inactive"}
{"molecule": "Cc1ccc2ccc(S(=O)(=O)n3nc(C)cc3C)cc2c1", "ratio change, negative = inhibition": "inconclusive: -32.8%"}
{"molecule": "c1ccc(CN2CCC(Nc3nc(-c4cccnc4)nc4ccccc34)CC2)cc1", "Potency": "inconclusive: 11.2 µM [inhibitor, partial curve]"}
{"molecule": "Cc1ccc(CNC(=O)CSc2nc3ccccc3nc2Cc2ccc(C)cc2)cc1", "ratio change, negative = inhibition": "inconclusive: 0.39% [at 46 µM]"}
{"molecule": "Cc1ccc(NC(=O)CN2C(=O)S/C(=C/c3ccc(-c4cccc(C(=O)O)c4)o3)C2=O)cc1", "ratio change, negative = inhibition": "inconclusive: 0.372% [at 46 µM]"}
{"molecule": "Cc1ccc(CCNC(=O)C2CCN(S(=O)(=O)c3ccc4c(ccn4C)c3)CC2)cc1", "ratio change, negative = inhibition": "inactive"}
{"molecule": "O=C(c1ccc(Cl)c(S(=O)(=O)N2CCCC2)c1)N1CCN(c2ccccc2F)CC1", "Potency": "inconclusive: 15.8 µM [inhibitor, partial curve, poor fit]"}
{"molecule": "CCOC(=O)C(C)Sc1nc(-c2ccccc2)nc2ccccc12", "note": "(stereo not drawn)", "ratio change, negative = inhibition": "inconclusive: -47.7% [at 46 µM]"}
{"molecule": "COc1ccc(S(=O)(=O)NCC(c2ccco2)S(=O)(=O)c2cccs2)cc1F", "note": "(stereo not drawn)", "ratio change, negative = inhibition": "inconclusive: -18% [at 46 µM]"}
{"molecule": "Cc1ccc(CN2CCN(CC3CC4C=CC3C4)CC2)cc1", "note": "(stereo not drawn)", "ratio change, negative = inhibition": "inactive"}
{"molecule": "CCn1c(=O)cc(SCC(=O)N2CCN(C(=O)c3ccco3)CC2)c2ccccc21", "Potency": "inconclusive: 10 µM [inhibitor, partial curve]"}
{"molecule": "CN1CCN(CC(O)COc2ccc(C34CC5CC(CC(C5)C3)C4)cc2)CC1", "note": "(stereo not drawn)", "ratio change, negative = inhibition": "inconclusive: 20.3% [at 46 µM]"}
{"molecule": "Cc1ccccc1Sc1c(C#N)c(-c2ccccc2)nn1C", "ratio change, negative = inhibition": "inconclusive: -37%"}
{"molecule": "CCOC(=O)C1CCN(c2ncnc3c2[nH]c2cccc(OC)c23)CC1", "ratio change, negative = inhibition": "inconclusive: 14.5%"}
{"molecule": "O=C(COc1ncnc2scc(-c3ccc(F)cc3)c12)NCc1ccco1", "ratio change, negative = inhibition": "inactive"}
{"molecule": "CCOC(=O)c1ccc(COC(=O)CCc2nc3ccccc3[nH]c2=O)o1", "ratio change, negative = inhibition": "inactive"}
{"molecule": "CC(=O)Nc1cccc(NC(=O)Cn2cnc3c(oc4ccccc43)c2=O)c1", "ratio change, negative = inhibition": "inconclusive: 24.9% [at 46 µM]"}
{"molecule": "NC[C@@H]1O[C@@H](O[C@H]2[C@H](O)[C@H](O[C@@H]3O[C@H](CO)[C@@H](O)[C@H](N)[C@@H]3O)[C@@H](N)C[C@H]2N)[C@H](N)C[C@@H]1O", "ratio change, negative = inhibition": "inconclusive: -26.8%"}
{"molecule": "O=C(CN1CCCCC1)NC(=O)NCc1ccccc1", "ratio change, negative = inhibition": "inactive"}
{"molecule": "CC(N1CCOC1=O)S(=O)(=O)c1ccccc1", "note": "(stereo not drawn)", "ratio change, negative = inhibition": "inactive"}
{"molecule": "O=S(=O)(Nc1ccc2c(c1)OCCO2)c1ccc(Br)s1", "Potency": "inconclusive: 35.5 µM [falling, single point]"}
{"molecule": "Cc1cccc(NC(=O)C2CCCN2S(=O)(=O)c2ccc3c(c2)n(C)c(=O)c(=O)n3C)c1", "note": "(stereo not drawn)", "ratio change, negative = inhibition": "inactive"}
{"molecule": "CC(=O)NCCNc1ncnc2ccc(-c3ccc4c(c3)OCO4)cc12", "ratio change, negative = inhibition": "inactive"}
{"molecule": "COc1cc(OC)c(NC(=O)c2cccc(F)c2)cc1Cl", "ratio change, negative = inhibition": "inactive"}
{"molecule": "CCC(CO)NCC(O)COCc1ccc2c(c1)OCO2", "note": "(stereo not drawn)", "ratio change, negative = inhibition": "inconclusive: 28.9% [at 46 µM]"}
{"molecule": "CC(C)(C)C1CCc2[nH]c3ccccc3c(=O)c2C1", "note": "(stereo not drawn)", "ratio change, negative = inhibition": "inconclusive: 2.76%"}
{"molecule": "CCc1ccc(-c2nc(NC(=O)c3ccc(OCC(=O)Nc4ccc(F)cc4)c(OC)c3)sc2C)cc1", "ratio change, negative = inhibition": "inactive"}
{"molecule": "O=C(Nc1ccccc1F)C1(c2ccccc2)CC1(Cl)Cl", "note": "(stereo not drawn)", "ratio change, negative = inhibition": "inconclusive: 14%"}
{"molecule": "CCc1cccc(NC(=O)Cc2ccc(OC)c(OC)c2)c1", "Potency": "inconclusive: 5.01 µM [fluorescent, full curve]"}
{"molecule": "COC(=O)CCCC1=CC2=C(c3ccccc3)C(=O)C(C)(OC(=O)C3CCCC3)C(=O)C2=CN1CCc1ccccn1", "note": "(stereo not drawn)", "ratio change, negative = inhibition": "inconclusive: -12.6% [at 9.22 µM]"}
{"molecule": "O=C(c1ccccc1)N1CCN(Cc2c[nH]c3ccccc23)CC1", "Potency": "inconclusive: 11.2 µM [falling, partial curve]"}
{"molecule": "O=C(c1ccc2c(c1)OCO2)C1CCCN(Cc2cc(F)ccc2-n2cccn2)C1", "note": "(stereo not drawn)", "ratio change, negative = inhibition": "inconclusive: -6.82% [at 46 µM]"}
{"molecule": "C/C(Cn1cnc([N+](=O)[O-])n1)=N\\NC(=O)c1ccc(F)cc1", "ratio change, negative = inhibition": "inactive"}
{"molecule": "O=C(C1COc2ccccc2O1)N1CCN(c2ccccc2Cl)CC1", "note": "(stereo not drawn)", "ratio change, negative = inhibition": "inconclusive: -6.42% [at 46 µM]"}
{"molecule": "Cc1ccc(N2C(S)=C(C#N)C(=O)NC2c2ccco2)cc1", "note": "(stereo not drawn)", "ratio change, negative = inhibition": "inactive"}
{"molecule": "CCS(=O)(=O)N1CCCC(C(=O)NCc2ccc3c(c2)OCO3)C1", "note": "(stereo not drawn)", "ratio change, negative = inhibition": "inactive: -0.876% [at 0.0737 µM]"}
{"molecule": "Cc1nc(C)c(/C(O)=C/c2nc3ccc([N+](=O)[O-])cc3oc2=O)o1", "ratio change, negative = inhibition": "inconclusive: -34% [at 46 µM]"}
{"molecule": "CCc1nnc(NC(=O)CSc2nnc(-c3ccncc3)n2C)s1", "ratio change, negative = inhibition": "inactive"}
{"molecule": "Cc1ccc(C)c2c1cc(C)c1nnc(SCC(=O)Nc3nc4c(s3)CCCC4)n12", "Potency": "inconclusive: 20 µM [falling, partial curve, poor fit]"}
{"molecule": "CCC(C)C(=O)N1c2ccccc2C(=C2SC(C(=O)OC)=C(C(=O)OC)S2)C(=S)C1(C)C", "note": "(stereo not drawn)", "ratio change, negative = inhibition": "inactive"}
{"molecule": "O=C(COc1ccccc1F)Nc1nnc(SCc2cc(=O)n3ccccc3n2)s1", "ratio change, negative = inhibition": "inactive"}
{"molecule": "O=C(O)c1ccc(N2C(=O)C3C4c5ccccc5C(Br)(c5ccccc54)C3C2=O)cc1", "note": "(stereo not drawn)", "ratio change, negative = inhibition": "inconclusive: 33.7% [at 46 µM]"}
{"molecule": "COCC(C)n1c(SCC(=O)N(C)C2CCS(=O)(=O)C2)nc2ccccc2c1=O", "note": "(stereo not drawn)", "ratio change, negative = inhibition": "inactive"}
{"molecule": "COc1ccc(NC(=O)c2ccc(CNc3c(NC4CCCCC4)c(=O)c3=O)cc2)cc1OC", "ratio change, negative = inhibition": "inactive"}
{"molecule": "O=C(CCc1ccccc1)N1CCc2c([nH]c3ccccc23)C1c1ccc(Cl)cc1", "note": "(stereo not drawn)", "Potency": "inconclusive: 3.55 µM [inhibitor, full curve]"}
{"molecule": "CCc1ccccc1NC(=O)CSc1nc2ncccc2o1", "ratio change, negative = inhibition": "inconclusive: 16.4% [at 46 µM]"}
{"molecule": "CC(=O)NCCNc1ncnc2ccc(-c3ccccc3Cl)cc12", "ratio change, negative = inhibition": "inactive"}
{"molecule": "Cc1[nH]nc2c1C(c1ccccc1F)NC2=O", "note": "(stereo not drawn)", "ratio change, negative = inhibition": "inactive"}
{"molecule": "CCCCCCCCCCCC(=O)NC1CCS(=O)(=O)C1", "note": "(stereo not drawn)", "ratio change, negative = inhibition": "inconclusive: -5.64% [at 46 µM]"}
{"molecule": "CC(C)NC(=O)COc1ncnc2sccc12", "ratio change, negative = inhibition": "inactive"}
{"molecule": "Cc1c(C)n(Cc2ccccc2)c2ncnc(N)c12", "ratio change, negative = inhibition": "inconclusive: -23.9%"}
{"molecule": "COc1ccc(NC(=S)Nc2ccc(S(N)(=O)=O)cc2)c(OC)c1", "ratio change, negative = inhibition": "inconclusive: -7.33% [at 46 µM]"}
{"molecule": "COc1cc(NS(=O)(=O)c2ccc3[nH]c4c(c3c2)CCCC4)cc(OC)c1OC", "ratio change, negative = inhibition": "inconclusive: -32.5% [at 46 µM]"}
{"molecule": "CN(C)c1ccc(-c2ccc3ncnc(NCc4ccccc4)c3c2)cc1", "ratio change, negative = inhibition": "inconclusive: -14.4%"}
{"molecule": "CCNc1ccc(S(=O)(=O)N(C)C)cc1NCC(=O)Nc1ccc(F)c(Cl)c1", "Potency": "inconclusive: 12.6 µM [falling, single point]"}
{"molecule": "O=C(N/N=C/c1sc(N2CCOCC2)nc1-c1ccccc1)c1ccccc1O", "Potency": "inconclusive: 35.5 µM [falling, single point]"}
